The chains behind the UniProt entries cited, without tags or fusion partners. Where a name states a change or a piece, a line headed by the entry shows the natural chain unless it says otherwise.
UniProt P09055, whole entry: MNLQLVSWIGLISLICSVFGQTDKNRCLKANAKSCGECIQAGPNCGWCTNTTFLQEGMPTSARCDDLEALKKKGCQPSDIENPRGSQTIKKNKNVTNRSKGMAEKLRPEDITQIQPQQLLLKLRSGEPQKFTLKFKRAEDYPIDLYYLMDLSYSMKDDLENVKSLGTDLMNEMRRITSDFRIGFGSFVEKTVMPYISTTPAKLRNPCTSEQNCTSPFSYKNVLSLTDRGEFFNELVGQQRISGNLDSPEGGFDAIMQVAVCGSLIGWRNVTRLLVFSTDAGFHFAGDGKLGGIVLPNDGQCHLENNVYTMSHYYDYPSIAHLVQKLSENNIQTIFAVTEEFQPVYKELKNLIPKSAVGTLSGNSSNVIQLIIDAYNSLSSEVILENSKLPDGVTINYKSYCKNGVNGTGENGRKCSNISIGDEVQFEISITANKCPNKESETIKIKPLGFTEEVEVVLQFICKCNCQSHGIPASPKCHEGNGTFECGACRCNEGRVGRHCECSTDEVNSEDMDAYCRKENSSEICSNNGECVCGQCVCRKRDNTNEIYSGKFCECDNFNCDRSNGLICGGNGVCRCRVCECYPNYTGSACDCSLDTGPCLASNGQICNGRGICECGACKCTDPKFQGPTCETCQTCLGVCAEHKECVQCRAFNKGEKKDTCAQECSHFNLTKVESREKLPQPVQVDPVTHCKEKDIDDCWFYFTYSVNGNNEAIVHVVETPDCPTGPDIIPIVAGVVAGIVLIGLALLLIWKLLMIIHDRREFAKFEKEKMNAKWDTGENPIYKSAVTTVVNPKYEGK
UniProt P01029: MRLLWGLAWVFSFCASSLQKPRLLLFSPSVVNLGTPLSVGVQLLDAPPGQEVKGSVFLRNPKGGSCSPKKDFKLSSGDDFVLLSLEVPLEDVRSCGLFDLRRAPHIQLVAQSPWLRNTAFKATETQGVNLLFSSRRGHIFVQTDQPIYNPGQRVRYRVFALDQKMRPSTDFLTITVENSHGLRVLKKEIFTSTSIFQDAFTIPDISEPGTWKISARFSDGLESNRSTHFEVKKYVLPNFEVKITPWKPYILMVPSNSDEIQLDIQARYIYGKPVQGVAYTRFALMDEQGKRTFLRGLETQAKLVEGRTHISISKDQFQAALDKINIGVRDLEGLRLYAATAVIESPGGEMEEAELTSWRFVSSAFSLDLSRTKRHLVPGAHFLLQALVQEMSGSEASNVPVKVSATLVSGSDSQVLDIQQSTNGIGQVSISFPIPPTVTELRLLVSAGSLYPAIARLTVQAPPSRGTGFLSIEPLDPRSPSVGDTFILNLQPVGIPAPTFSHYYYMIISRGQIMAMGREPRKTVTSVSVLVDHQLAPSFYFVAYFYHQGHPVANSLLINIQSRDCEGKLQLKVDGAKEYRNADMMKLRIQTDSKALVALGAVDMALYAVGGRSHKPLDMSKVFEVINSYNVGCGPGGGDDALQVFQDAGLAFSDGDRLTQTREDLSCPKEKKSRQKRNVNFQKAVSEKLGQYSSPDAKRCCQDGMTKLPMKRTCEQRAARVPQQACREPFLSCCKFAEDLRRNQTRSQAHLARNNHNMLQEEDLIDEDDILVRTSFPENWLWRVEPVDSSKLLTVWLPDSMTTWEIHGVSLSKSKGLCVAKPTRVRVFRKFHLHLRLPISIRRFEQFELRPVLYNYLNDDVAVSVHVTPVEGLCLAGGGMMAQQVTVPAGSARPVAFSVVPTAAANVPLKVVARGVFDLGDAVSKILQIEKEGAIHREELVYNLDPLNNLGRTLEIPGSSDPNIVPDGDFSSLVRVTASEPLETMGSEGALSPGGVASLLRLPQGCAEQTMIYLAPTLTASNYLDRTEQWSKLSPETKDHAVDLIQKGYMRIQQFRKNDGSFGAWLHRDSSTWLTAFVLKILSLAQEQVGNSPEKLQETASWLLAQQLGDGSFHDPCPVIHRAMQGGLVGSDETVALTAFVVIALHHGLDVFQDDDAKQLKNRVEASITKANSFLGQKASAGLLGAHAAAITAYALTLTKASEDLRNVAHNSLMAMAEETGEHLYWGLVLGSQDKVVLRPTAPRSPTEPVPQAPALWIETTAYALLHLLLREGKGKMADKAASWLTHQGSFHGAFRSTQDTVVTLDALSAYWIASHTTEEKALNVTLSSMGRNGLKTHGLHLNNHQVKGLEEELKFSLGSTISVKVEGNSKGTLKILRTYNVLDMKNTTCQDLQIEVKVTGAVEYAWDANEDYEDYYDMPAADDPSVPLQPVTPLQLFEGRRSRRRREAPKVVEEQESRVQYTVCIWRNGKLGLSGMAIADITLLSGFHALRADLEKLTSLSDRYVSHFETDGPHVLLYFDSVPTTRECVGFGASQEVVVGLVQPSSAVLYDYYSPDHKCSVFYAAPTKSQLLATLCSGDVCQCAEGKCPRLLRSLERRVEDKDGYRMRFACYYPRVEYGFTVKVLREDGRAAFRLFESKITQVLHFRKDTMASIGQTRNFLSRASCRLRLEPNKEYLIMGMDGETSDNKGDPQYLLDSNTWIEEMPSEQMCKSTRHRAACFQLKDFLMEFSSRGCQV
UniProt P11588: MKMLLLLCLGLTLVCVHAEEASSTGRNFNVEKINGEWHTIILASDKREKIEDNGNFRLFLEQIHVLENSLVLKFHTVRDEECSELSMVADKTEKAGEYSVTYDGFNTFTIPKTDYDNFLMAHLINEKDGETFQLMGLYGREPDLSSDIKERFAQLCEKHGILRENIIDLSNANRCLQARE
UniProt P11859: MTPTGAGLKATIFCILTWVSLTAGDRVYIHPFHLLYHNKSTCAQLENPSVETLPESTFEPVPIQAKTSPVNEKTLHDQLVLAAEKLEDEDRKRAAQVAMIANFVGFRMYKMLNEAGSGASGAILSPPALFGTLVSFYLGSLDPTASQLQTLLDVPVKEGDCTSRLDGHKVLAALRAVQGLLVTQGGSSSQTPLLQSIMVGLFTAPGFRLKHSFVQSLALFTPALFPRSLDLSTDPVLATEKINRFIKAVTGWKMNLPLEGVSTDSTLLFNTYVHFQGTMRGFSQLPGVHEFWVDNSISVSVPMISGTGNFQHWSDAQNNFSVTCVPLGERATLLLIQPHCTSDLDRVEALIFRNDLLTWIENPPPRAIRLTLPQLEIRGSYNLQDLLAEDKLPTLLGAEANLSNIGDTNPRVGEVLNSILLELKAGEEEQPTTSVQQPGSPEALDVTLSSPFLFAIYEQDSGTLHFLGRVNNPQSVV
UniProt P06339: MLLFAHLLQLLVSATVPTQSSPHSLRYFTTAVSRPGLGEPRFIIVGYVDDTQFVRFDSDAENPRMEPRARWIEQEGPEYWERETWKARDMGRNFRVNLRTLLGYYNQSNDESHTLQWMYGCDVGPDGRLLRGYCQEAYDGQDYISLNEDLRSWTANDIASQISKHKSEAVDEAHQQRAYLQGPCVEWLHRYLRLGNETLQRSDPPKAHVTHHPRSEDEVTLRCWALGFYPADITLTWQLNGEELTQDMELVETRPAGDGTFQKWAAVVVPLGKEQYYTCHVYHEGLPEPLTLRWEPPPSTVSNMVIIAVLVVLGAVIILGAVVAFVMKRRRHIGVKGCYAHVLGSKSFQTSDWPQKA
UniProt P15306, whole entry: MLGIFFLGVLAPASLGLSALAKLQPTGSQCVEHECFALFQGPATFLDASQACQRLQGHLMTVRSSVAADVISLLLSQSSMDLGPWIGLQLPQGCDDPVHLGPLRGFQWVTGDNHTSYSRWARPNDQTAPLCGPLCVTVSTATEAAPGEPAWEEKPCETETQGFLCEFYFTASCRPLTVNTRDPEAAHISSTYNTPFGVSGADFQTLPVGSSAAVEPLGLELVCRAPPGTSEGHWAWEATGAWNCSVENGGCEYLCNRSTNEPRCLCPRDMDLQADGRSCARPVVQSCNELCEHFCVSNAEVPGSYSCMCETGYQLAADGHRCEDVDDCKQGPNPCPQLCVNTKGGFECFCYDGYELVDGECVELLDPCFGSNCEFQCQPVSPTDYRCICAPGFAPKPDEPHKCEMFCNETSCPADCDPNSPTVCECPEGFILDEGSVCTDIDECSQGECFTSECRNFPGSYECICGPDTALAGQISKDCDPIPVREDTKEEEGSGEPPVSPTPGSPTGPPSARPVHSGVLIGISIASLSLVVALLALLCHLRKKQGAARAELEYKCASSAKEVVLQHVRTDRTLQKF
UniProt P11157, whole entry: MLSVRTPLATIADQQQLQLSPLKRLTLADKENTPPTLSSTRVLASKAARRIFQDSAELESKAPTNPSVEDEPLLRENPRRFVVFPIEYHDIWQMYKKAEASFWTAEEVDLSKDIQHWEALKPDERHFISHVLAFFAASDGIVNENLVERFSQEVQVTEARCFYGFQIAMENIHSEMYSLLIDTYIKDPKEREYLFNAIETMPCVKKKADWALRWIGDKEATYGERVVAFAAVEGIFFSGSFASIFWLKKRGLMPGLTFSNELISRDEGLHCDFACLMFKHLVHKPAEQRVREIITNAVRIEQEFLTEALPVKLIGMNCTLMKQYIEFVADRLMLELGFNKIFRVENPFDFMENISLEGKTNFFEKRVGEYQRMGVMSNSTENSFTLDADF
UniProt O89084: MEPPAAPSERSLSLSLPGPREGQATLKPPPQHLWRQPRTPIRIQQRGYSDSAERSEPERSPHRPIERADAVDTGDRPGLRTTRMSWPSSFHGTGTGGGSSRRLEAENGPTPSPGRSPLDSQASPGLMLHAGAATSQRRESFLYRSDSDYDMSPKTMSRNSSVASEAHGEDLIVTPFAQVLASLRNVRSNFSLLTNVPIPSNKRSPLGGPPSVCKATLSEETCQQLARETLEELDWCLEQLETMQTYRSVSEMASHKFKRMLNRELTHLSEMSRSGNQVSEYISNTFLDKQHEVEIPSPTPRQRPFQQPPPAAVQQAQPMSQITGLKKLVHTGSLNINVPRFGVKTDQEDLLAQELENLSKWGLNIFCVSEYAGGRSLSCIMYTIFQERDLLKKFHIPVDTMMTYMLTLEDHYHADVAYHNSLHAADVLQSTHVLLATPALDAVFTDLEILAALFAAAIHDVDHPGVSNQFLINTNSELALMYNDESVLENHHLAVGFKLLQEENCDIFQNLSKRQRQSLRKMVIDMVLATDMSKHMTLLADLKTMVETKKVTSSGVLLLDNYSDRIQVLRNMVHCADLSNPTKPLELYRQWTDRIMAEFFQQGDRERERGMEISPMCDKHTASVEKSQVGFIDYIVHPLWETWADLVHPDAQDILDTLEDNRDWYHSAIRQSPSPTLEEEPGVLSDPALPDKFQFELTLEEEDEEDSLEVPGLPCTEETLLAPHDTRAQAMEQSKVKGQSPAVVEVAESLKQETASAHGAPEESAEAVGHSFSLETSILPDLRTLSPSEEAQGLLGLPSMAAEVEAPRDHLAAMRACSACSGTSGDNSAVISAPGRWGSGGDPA

The other results are listed elsewhere or left out. Most values lie at the level of the controls, where differences are scatter.
The targets below were run with CN[C@@H]1C[C@H]2O[C@@](C)([C@@H]1OC)n1c3ccccc3c3c4c(c5c6ccccc6n2c5c31)C(=O)NC4 [staurosporine] (assay: log2 fold change of tryptic peptide abundance, ligand vs vehicle (limited proteolysis) (log2 ratio); higher = more trypsin-susceptible (destabilized)). Details: ligand concentration: 20 uM; sample: mouse liver crude lysate; replicate design: treated separately.
“UniProt P09055 (peptide sequence: SAVTTVVNPK, peptide start residue: 785)” gave a log2 fold change of -0.139.
With “UniProt P01029 (peptide sequence: RAPHIQLVAQSPWLRNTAFK, peptide start residue: 102)” the log2 fold change was 0.434.
“UniProt P11588 (peptide sequence: FAQLCEK, peptide start residue: 152)” was tested, and the log2 fold change was -0.0595.
“UniProt P11859 (peptide sequence: LTLPQLEIR, peptide start residue: 370)” showed a log2 fold change of 0.173.
Target “UniProt P06684 (peptide sequence: HSVPKKCCYDGAR, peptide start residue: 696)” has a log2 fold change of 0.415.
Work on “UniProt P06339 (peptide sequence: AYLQGPCVEWLHR, peptide start residue: 178)” yielded a log2 fold change of 0.305.
“UniProt P15306 (peptide sequence: EVVLQHVR, peptide start residue: 562)” showed a log2 fold change of -0.00667.
“UniProt P11157 (peptide sequence: TNFFEKR, peptide start residue: 360)” showed a log2 fold change of -0.101.
In the case of “UniProt O89084 (peptide sequence: IMAEFFQQGDRER, peptide start residue: 565)”, the log2 fold change is reported as -0.22.

— the supplement of paper PMC12819154, “High-throughput peptide-centric local stability assay extends protein–ligand identification to membrane proteins, tissues and bacteria” (Nature Structural & Molecular Biology, 2025)
